Experimental data: patent US11819019B2, “Protein-free semen cryopreservation” (University of Saskatchewan, priority 2017, dated 2023)
“Also recorded” adds a separate entry of the source.

System: bull sperm
Experiment: Internalization of cell penetrating peptides in fresh bull sperm, microscopy and flow cytometry (Example 8)
Format: cell-based
Details: for binding to and penetration of fresh bull sperm: fluorescent-labelled peptide, FIGS. 10-11

Substance | uptake by live sperm, SS31 vs mTP4 (flow cytometry, FIG. 11) | binding to and penetration of fresh bull sperm
D-Arg-DMT-Lys-Phe [SS31] | significantly higher than mTP4 | bind with live sperm; also recorded: penetrated the fresh sperm
DMT-D-MWWRRSRTNSLRYT [mTP4] |  | bind with live sperm; also recorded: penetrated the fresh sperm
